From publication PMC6329817
Results are given in words; binding and its absence hold for the method and conditions named. Binding seen in cells or lysates may run through a third protein. A result given as binding can be weak or reduced; the word gives no strength. Sequences can lack the tags named with a protein. Blank lines part the entries; values can stand above or below the binder they belong to.

By UniProt entry, the sequences of proteins in these tests, tags left out. Where a name states a change or a piece, a line headed by the entry shows the natural chain unless it says otherwise.
UniProt F4IHY7: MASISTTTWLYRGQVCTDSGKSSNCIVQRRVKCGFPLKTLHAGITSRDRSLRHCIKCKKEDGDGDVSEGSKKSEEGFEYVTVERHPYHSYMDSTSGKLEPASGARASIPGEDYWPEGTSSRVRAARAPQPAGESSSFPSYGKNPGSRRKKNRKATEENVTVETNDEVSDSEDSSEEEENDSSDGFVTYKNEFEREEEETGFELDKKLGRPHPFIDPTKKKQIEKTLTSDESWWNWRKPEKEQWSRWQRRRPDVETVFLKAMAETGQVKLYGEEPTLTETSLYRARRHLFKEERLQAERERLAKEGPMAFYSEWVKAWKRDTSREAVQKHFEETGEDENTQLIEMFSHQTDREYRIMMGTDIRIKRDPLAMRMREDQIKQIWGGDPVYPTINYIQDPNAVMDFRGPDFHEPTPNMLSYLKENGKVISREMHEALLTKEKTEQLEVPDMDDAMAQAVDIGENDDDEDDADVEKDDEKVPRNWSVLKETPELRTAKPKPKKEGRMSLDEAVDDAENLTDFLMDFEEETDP

Target: GST-HMR (HEMERA, full-length coding sequence fused to glutathione S-transferase) (Arabidopsis) (UniProt F4IHY7)
Experiment: pull-down; GST or GST-HMR immobilised on glutathione Sepharose beads; in vitro-translated HA-tagged preys (TNT reticulocyte lysate) diluted in E buffer (50 mM Tris-Cl pH 7.5, 100 mM NaCl, 1 mM EDTA, 1 mM EGTA, 1% DMSO, 2 mM DTT) with 0.1% Nonidet P-40, 4 °C, 2 h; preys detected by anti-HA …; only the target purified

- binding: no binding
B1: HA-PIF4C2 (PIF4 lacking the N-terminal amino acids 1-129) (domain or fragment, UniProt Q8W2F3 130-430)
chain: PPQVMPPPKFRLTNSSSGIRETEMEQYSVTTVGPSHCGSNPSQNDLDVSMSHDRSKNIEEKLNPNASSSSGGSSGCSFGKDIKEMASGRCITTDRKRKRINHTDESVSLSDAIGNKSNQRSGSNRRSRAAEVHNLSERRRRDRINERMKALQELIPHCSKTDKASILDEAIDYLKSLQLQLQVMWMGSGMAAAAASAPMMFPGVQPQQFIRQIQSPVQLPRFPVMDQSAIQNNPGLVCQNPVQNQIISDRFARYIGGFPHMQAATQMQPMEMLRFSSPAGQQSQQPSSVPTKTTDGSRLDH

- binding: binds
B2: HA-PIF4N3 (N-terminal fragment of PIF4, amino acids 1-129) (domain or fragment, UniProt Q8W2F3 1-129)
chain: MEHQGWSFEENYSLSTNRRSIRPQDELVELLWRDGQVVLQSQTHREQTQTQKQDHHEEALRSSTFLEDQETVSWIQYPPDEDPFEPDDFSSHFFSTMDPLQRPTSETVKPKSSPEPPQVMVKPKACPDP
